{
  "source": "patent US7619005B2",
  "about": "“Methods for treating cognitive impairment in humans with Multiple Sclerosis” (Cognition Pharmaceuticals LLC, priority 2000, dated 2009)",
  "system": "rats",
  "experiment": "Inhibitory Avoidance task, normal rats",
  "conditions": "Control rats, each animal (Table 7)",
  "note": "“And” between values parts separate entries of the source, which are not always exact repeats. Equal values may be shown once. The source gives many values for each of these; only a part stands here.",
  "data": [
    {"substance": "(−)-1-methyl-2-phenylethylamine sulfate (2:1) [C105]", "values": [
      {"measurement": "latency to enter the dark side of the apparatus", "setting": "0.5 mg/kg", "value": "577.0 seconds and 28.0 seconds (2×) and 93.0 seconds and 162.0 seconds"},
      {"measurement": "latency to enter the dark side of the apparatus", "setting": "1.0 mg/kg", "value": "317.0 seconds and 26.0 seconds (2×) and 48.0 seconds and 56.0 seconds"},
      {"measurement": "latency to enter the dark side of the apparatus", "setting": "2.0 mg/kg", "value": "581.0 s and 21.0 s and 25.0 s and 41.0 s and 84.0 s"},
      {"measurement": "latency to enter the dark side of the apparatus", "setting": "4.0 mg/kg", "value": "208.0 seconds and 21.0 seconds and 36.0 seconds and 64.0 seconds (2×)"}
    ]}
  ]
}
